Experimental data taken from publication PMC11387829.
No constants are given. Whether binding was seen depends on the method and setting. For part of these data: Binding seen in cells or lysates may run through a third protein. Some results given as binding are weak or reduced against the parent protein; the word gives no strength. Values belong to the substance of their own block, whether it stands above or below them.

Chains of the proteins cited; added tags and fusions are not shown.
UniProt P01106: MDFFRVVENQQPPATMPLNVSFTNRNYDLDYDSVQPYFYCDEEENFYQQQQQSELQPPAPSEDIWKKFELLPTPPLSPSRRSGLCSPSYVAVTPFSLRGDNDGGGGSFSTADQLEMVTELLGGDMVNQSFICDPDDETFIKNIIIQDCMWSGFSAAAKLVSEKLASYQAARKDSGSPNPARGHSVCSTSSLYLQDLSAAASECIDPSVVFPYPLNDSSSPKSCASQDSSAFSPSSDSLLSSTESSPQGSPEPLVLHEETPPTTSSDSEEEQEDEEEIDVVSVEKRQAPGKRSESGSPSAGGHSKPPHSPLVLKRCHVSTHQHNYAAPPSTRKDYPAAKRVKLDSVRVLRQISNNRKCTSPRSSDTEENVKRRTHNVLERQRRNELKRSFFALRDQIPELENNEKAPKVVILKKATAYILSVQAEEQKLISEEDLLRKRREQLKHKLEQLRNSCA
UniProt Q9HC98: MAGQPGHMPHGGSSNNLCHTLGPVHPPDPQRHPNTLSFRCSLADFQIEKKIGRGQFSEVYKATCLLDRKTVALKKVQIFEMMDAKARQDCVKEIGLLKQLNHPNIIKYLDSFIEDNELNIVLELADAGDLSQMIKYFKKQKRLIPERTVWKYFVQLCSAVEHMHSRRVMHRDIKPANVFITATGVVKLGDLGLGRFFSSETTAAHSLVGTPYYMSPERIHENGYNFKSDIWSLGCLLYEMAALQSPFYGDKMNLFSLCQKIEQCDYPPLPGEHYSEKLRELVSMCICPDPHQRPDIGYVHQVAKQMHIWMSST
UniProt O43524: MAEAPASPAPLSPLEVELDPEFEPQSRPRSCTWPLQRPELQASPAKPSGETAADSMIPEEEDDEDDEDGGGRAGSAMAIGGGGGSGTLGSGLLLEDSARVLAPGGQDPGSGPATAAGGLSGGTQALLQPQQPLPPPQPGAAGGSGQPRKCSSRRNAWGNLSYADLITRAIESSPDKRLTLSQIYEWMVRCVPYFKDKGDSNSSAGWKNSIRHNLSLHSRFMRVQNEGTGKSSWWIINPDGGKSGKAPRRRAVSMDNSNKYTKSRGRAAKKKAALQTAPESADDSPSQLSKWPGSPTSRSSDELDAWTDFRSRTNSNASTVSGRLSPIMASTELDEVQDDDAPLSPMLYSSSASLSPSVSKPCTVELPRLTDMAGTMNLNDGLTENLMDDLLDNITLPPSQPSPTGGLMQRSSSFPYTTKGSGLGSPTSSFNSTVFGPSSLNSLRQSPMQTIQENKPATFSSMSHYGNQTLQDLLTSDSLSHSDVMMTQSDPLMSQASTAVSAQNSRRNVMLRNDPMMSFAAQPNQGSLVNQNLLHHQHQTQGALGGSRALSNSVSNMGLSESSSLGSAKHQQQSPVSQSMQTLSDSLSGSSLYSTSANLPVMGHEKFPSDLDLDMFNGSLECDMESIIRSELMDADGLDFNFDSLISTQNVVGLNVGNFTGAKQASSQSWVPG
UniProt Q969H0: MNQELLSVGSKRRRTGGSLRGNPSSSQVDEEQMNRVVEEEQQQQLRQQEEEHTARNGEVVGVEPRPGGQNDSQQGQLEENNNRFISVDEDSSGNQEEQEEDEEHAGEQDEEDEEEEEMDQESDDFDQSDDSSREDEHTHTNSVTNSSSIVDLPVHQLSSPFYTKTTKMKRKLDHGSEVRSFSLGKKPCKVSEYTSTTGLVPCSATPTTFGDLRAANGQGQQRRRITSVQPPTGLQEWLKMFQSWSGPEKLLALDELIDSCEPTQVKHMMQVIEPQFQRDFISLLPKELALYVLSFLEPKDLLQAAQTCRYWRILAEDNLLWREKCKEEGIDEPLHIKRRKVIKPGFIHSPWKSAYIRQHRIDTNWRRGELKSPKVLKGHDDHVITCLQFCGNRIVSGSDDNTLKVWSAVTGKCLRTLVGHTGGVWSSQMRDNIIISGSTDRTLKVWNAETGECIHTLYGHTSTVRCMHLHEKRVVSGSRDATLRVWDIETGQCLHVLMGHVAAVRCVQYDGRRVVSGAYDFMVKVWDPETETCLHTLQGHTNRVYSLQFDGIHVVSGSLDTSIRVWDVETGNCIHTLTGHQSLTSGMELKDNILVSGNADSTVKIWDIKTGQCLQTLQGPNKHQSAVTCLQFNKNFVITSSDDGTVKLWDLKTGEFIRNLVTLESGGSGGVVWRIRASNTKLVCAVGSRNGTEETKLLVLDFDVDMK

Tests used:
[1] = biological target: C-MYC (endogenous) (human (endogenous in the human cell lines of the study)) (UniProt P01106); test: co-IP; endogenous C-MYC and FBXW7 in cells after introducing FOXO3-WT or FOXO3-S7A; lysate incubated with antibodies and magnetic beads at 4 °C overnight; immunoblot
[2] = biological target: NEK6 (endogenous) (human (endogenous in human ovarian cancer cell lines)) (UniProt Q9HC98); test: proximity ligation; NaveniFlex Cell MR on fixed, permeabilised chemosensitive and chemoresistant ovarian cancer cells; red fluorescence
[3] = biological target: NEK6 (endogenous) (human (endogenous in human ovarian cancer cell lines)) (UniProt Q9HC98); test: co-IP; endogenous proteins; cell lysate (IP Lysis Buffer) incubated with antibodies and magnetic beads at 4 °C overnight; immunoblot
Flag-NEK6-WT (human) = Flag-NEK6-WT (human) (UniProt Q9HC98); test: co-IP; exogenously overexpressed NEK6 or FOXO3; cell lysate incubated with antibodies and magnetic beads at 4 °C overnight; immunoblot
GST-NEK6-WT (human) = GST-NEK6-WT (human) (UniProt Q9HC98); test: pull-down; His-FOXO3 protein mixed ('crosslinked') with GST or GST-NEK6 protein, incubated with antibodies and magnetic beads at 4 °C with rotation; western blot; both purified
[4] = biological target: His-FOXO3-WT (pCMV, expressed in cells) (UniProt O43524); test: co-IP; exogenously overexpressed NEK6 or FOXO3; cell lysate incubated with antibodies and magnetic beads at 4 °C overnight; immunoblot

- binding [1]: binds
Substance: FBXW7 (endogenous) (from UniProt Q969H0 1-707)

- binding [2]: binds
- binding [3]: binds
- binding (Flag-NEK6-WT (human)): binds
Substance: FOXO3 (endogenous) (from UniProt O43524 1-673)

- binding (GST-NEK6-WT (human)): binds
Substance: His-FOXO3-WT (pT7, E. coli) (from UniProt O43524 1-673)

- binding [4]: binds
Substance: NEK6 (endogenous) (from UniProt Q9HC98 1-313) (enzyme)
